# Laboratory results taken from patent US20110091559A1, “COMPOSITIONS COMPRISING ADJUVANT, MACROLIDE AND PROTEINACEOUS ANTIGEN AND METHODS OF USE THEREOF” (Wyeth LLC, priority 2009, published 2011).
# At least one structure is not confirmed: it was looked up by name or label, or the drawing left a doubt.
# Assay: Moxidectin stability in the vaccine formulations by HPLC
# Type: physicochemical
# Conditions: in Formulations 1-4
smiles,measurement,value
"CO/N=C1\C[C@]2(C[C@@H]3C[C@@H](C/C=C(\C)C[C@@H](C)/C=C/C=C4\CO[C@@H]5[C@H](O)C(C)=C[C@@H](C(=O)O3)[C@]45O)O2)O[C@H](/C(C)=C/C(C)C)[C@H]1C [Moxidectin, moxidectin]",Time moxidectin is stable in the formulations,at least 1 month
